Laboratory results: patent publication US9526721B2, “Tetrahydroprotoberbine compounds and uses thereof in the treatment of neurological, psychiatric and neurodegenerative diseases” (priority 2012, dated 2016)

Tested on: rats
Experiment: Microdialysis of prefrontal cortex and nucleus accumbens;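 further: dialysate collected every 10 min from freely moving rats, analysed by HPLC with electrochemical detection, after four stable baseline samples (under 10% variation) preceding drug dosing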
Conditions: 1.0 mg/kg SC

Structure (SMILES): COc1cc2c(cc1O)CN1CCc3cc(OC)c(O)cc3C1C2 (racemic) [dl-govadine]
- time of DA peak after injection, NAc: 20 to 30 min
- time of DA peak after injection, PFC: ≤ 10 min
